Measurements as given in PubChem BioAssay AID2685 (National Center for Advancing Translational Sciences (NCATS), 2010).
The other results are listed elsewhere or left out. Shown are side measurements of this screen, not its main read-out; they come without a call. The list favours compounds with an active or inconclusive main result. Words in brackets tell the shape of the fitted curve; partial curves, single points and poor fits give uncertain potencies.

Test: qHTS Assay for Lipid Storage Modulators in Drosophila S3 Cells;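 as to cell number change: cells counted by Cell Tracker Red CMTPX staining in the red channel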
Settings: BODIPY lipid droplet fluorescence, 18-24 h; for cell number change: measured here: cell count max response, cells fed with added oleic acid
Summary of the method: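 Drosophila S3 cells got compounds at several concentrations plus oleic acid (400 uM solution). Laser-scanning cytometry with 488 nm excitation read lipid droplets at 500-530 nm and cells at 575-640 nm. Percent activity was relative to 20 uM Triacsin C.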

[1] = measured here: lipid fluorescence (Fed channel) AC50, cells fed with added oleic acid
[2] = measured here: cell number channel AC50, cells fed with added oleic acid

Compound | cell number change [%] | AC50 [1] | AC50 [2]
CCOCCCNC(=O)c1cn(C)c2ccc(S(=O)(=O)N3CCCC3)cc2c1=O | -13 | – | –
COc1ccc(C)cc1N(CC(=O)NC1CCCC1)C(=O)Cn1nnc(-c2ccc(C)o2)n1 | 10.5 | 6.51 µM [falling, full curve, poor fit] | –
O=C(O)c1ccc(Oc2ccc(C(F)(F)F)cn2)cc1 | 8.06 | 5.17 µM [falling, single point] | 0.651 µM [falling, full curve]
O=C(Cn1nc([N+](=O)[O-])nc1Br)NC(c1ccccc1)c1ccccc1 | -46 | 29.1 µM [falling, single point] | 20.6 µM [falling, partial curve]
CC(NC(=O)c1ccco1)C(=O)N1CCN(C(c2ccccc2)c2ccccc2)CC1 (stereo unspecified) | – | – | 2.31 µM [rising, partial curve]
CC(C)C(NC(=O)c1ccc([N+](=O)[O-])cc1Cl)C(=O)N1CCCC1 (stereo unspecified) | 7.62 | 0.206 µM [falling, single point] | –
CC(C)C[C@@H](C(=O)O)N(Cc1cccc(CN([C@@H](CC(C)C)C(=O)O)S(C)(=O)=O)c1)S(C)(=O)=O | -2.69 | 6.51 µM [rising, partial curve] | –
Cc1[nH]nc(SCC(=O)N2CCCCC2)c1[N+](=O)[O-] | 22.1 | 6.51 µM [falling, partial curve] | –
Cc1[nH]c2ccc(C(=O)NCC(C)(C)N3CCOCC3)cc2c1C | – | 1.3 µM [rising, partial curve] | –
CCOC(=O)C(NC(=O)CC)(Nc1ccc(S(=O)(=O)Nc2ncccn2)cc1)C(F)(F)F (stereo unspecified) | -47.7 | 4.61 µM [falling, full curve] | 2.06 µM [falling, partial curve, poor fit]
CC1C2CC(C(S(=O)(=O)N3CCOCC3)C2=O)C1(C)C (stereo unspecified) | -0.817 | 6.51 µM [falling, single point] | –
O=C(c1cc(-c2ccc(O)cc2)on1)N1CCOCC1 | 14.3 | 2.91 µM [falling, single point] | –
Cc1ccc(C(=O)Nc2cccc(C(=O)NCc3ccco3)c2)cc1 | 10.9 | – | –
COc1ccc(Cl)cc1NC(=O)c1[nH]nc(OC)c1[N+](=O)[O-] | -29.8 | – | –
CCOc1ccc(S(=O)(=O)Nc2ccc(C(=O)NCc3ccncc3)cc2)cc1 | -10.6 | 0.184 µM [falling, partial curve, poor fit] | –
COc1ccc(C2=CC(c3ccco3)n3ncnc3N2)cc1 (stereo unspecified) | 54 | – | 6.51 µM [rising, partial curve]
O=C1CCC(C(=O)O)N1 (stereo unspecified) | 3.42 | 29.1 µM [rising, single point] | –
COC(=O)CCCC(=O)N1CCC(n2nccc2NC(=O)CCOc2ccccc2)CC1 | -16.2 | 4.61 µM [falling, partial curve] | –
O=C(NC(=S)Nc1ccc(S(=O)(=O)N2CCCC2)cc1)c1cccs1 | -22 | – | 0.0058 µM [falling, full curve, poor fit]

Compound | cell number change [%] | AC50 [1] | AC50 [2]
C/C(=N/NC(=O)c1cc(O)c(O)c(O)c1)c1ccc([N+](=O)[O-])cc1 | 6.85 | – | –
Cc1cc(C)cc(NCC(=O)Nc2c(C)cccc2C)c1 | 85.3 | 9.2 µM [rising, partial curve] | 9.2 µM [rising, partial curve]
Cc1ccccc1C(OCCN(C)C)c1ccccc1 (stereo unspecified) | -8.63 | – | –
Nc1c(C(=O)Nc2ccc3c(c2)OCCO3)nnn1Cc1ccccc1 | -8.87 | – | –
COc1ccccc1NC(=O)c1sc(NC(=O)c2ccco2)c(C#N)c1C | – | 4.11 µM [rising, partial curve] | 2.06 µM [rising, partial curve]
Clc1ccc(Cn2ncc3c(NCc4ccccc4)ncnc32)cc1 | -31.3 | – | 29.1 µM [falling, single point]
CCn1c(=NC(=O)CSCC(=O)Nc2nccs2)sc2ccccc21 | 46.2 | 2.91 µM [rising, partial curve] | 0.411 µM [rising, partial curve]
OCC1(Cc2ccc(F)cc2F)CCCN(Cc2ccc(Cl)cc2)C1 (stereo unspecified) | -48 | – | 6.51 µM [falling, partial curve]
Cc1nc2cc(NC(=O)NCc3ccc4c(c3)OCO4)ccc2o1 | 65.5 | 2.31 µM [rising, full curve] | 1.16 µM [rising, full curve]
CCOC(=O)Cn1c(=NC(=O)c2cc(-c3cccs3)nc3ccccc23)sc2cc(S(N)(=O)=O)ccc21 | -11.7 | 0.164 µM [rising, full curve, poor fit] | –
COc1ccc(N2CCN(C(=O)C(=O)c3cn(CC(=O)N4CCOCC4)c4ccccc34)CC2)cc1 | 67.6 | 7.31 µM [rising, partial curve] | 29.1 µM [rising, single point]
CCCN1C(=O)c2cc(C(=O)O)ccc2C1O (stereo unspecified) | -36.8 | 0.184 µM [falling, full curve, poor fit] | 0.259 µM [falling, full curve, poor fit]
COc1cccc(CNC(=O)[C@H](CCSC)NC(=O)N2CCn3c2nc2ccccc23)c1 | -7.66 | 20.6 µM [falling, partial curve] | –
Cc1cc(Cl)c(S(=O)(=O)NC2CCCCC2)cc1OCC(=O)Nc1nncs1 | -32.7 | 23.1 µM [falling, partial curve] | 20.6 µM [falling, single point]
Cc1cc(SCC(=O)OC/C(O)=C(\C#N)c2nc3ccccc3[nH]2)c(C)cc1Br | -12.6 | 29.1 µM [falling, single point] | –
Cc1cccc(-n2cnc(C(=O)N3CCN(C)CC3)c2)n1 | 36.9 | – | –
O=C(CCN1C(=O)/C(=C/c2ccc(Cl)cc2)SC1=S)Nc1cccc(C(=O)O)c1 | 2.76 | 0.00411 µM [falling, full curve, poor fit] | –
O=C1c2ccc(Oc3ccc4c(c3)C(=O)N(CCCO)C4=O)cc2C(=O)N1CCCO | -4.45 | 1.46 µM [falling, partial curve] | –
CN1C(=O)N(C)C2(c3ccccc3)NC(=O)NC12c1ccccc1 (stereo unspecified) | -50.4 | 1.16 µM [falling, full curve] | 1.16 µM [falling, full curve]

Compound | cell number change [%] | AC50 [1] | AC50 [2]
CN(C)c1ccc(C2C3C(=O)NC(=O)C3ON2c2ccc(Cl)cc2)cc1 (stereo unspecified) | 34.2 | 6.51 µM [rising, single point] | 4.61 µM [rising, single point]
O=C(Nc1nc2ccccc2s1)c1ccccc1[N+](=O)[O-] | -16.2 | 23.1 µM [rising, single point] | –
Cc1ccc2c(cnn2C(=O)CCC(=O)NCc2cccc(Cl)c2)c1 | 7.49 | 6.51 µM [rising, single point] | 0.731 µM [rising, single point]
COCc1cc(=O)[nH]c(-c2ccc(C(F)(F)F)cc2)n1 | -14 | 0.13 µM [falling, full curve, poor fit] | –
COc1ccc(NC(=O)CN(C)C(=O)/C=C/c2ccc(OCc3ccccc3)cc2)cc1 | – | 0.631 µM [falling, full curve, poor fit] | –
O=c1c2ccccc2oc2cc(-c3ccc(CN4CCOCC4)cc3)ccc12 | -6.27 | 7.31 µM [falling, single point] | –
CCOc1ccc2[nH]c3c(NCCCOC)ncnc3c2c1 | -54.3 | 32.6 µM [falling, partial curve] | 20.6 µM [falling, partial curve]
O=c1[nH]nc(CSCc2ccccc2Cl)[nH]1 | – | 0.651 µM [falling, full curve] | 6.51 µM [falling, partial curve, poor fit]
O=C(COc1ccc2ccc(=O)oc2c1)N1CCc2ccccc21 | – | 6.51 µM [falling, single point] | 0.517 µM [falling, single point]
CCCCN(CCCNC(=O)c1c(C)cc(=O)oc1C)c1ccccc1 | 114 | – | 16.4 µM [rising, single point]
COCCN(C(=O)CSc1ncn[nH]1)c1c(N)n(Cc2ccccc2)c(=O)[nH]c1=O | -11.3 | 16.4 µM [falling, partial curve] | –
CN(C)S(=O)(=O)c1ccc(Cl)c(C(=O)Nc2ccc(S(=O)(=O)N3CCOCC3)cc2)c1 | 1.67 | 5.17 µM [falling, single point] | –
CSc1nc(C(C)C)ccc1CNC(=O)CC(C)c1ccccc1 (stereo unspecified) | -4.17 | 6.51 µM [rising, single point] | –
CC(C)OC(=O)NCCOC(=O)Nc1ccc(Cl)cc1 | 5.37 | – | –
CCOC(=O)CC(=O)c1[nH]c(C)c(C(=O)OCC)c1C | 49.7 | 0.651 µM [rising, full curve] | 0.651 µM [rising, full curve]
CC(=O)Nc1ccc(C(=S)NCC2(N(C)C)CCCCC2)cc1 | 24.6 | – | 0.0366 µM [rising, single point]
CCOC(=O)N1CCN(c2nc(=S)n(-c3ccccc3)c(C)c2C(C)=O)CC1 | 8.12 | 6.51 µM [rising, single point] | –
Cc1cc(C)c(S(=O)(=O)N2CCCOC2CNC(=O)C(=O)NCc2ccncc2)c(C)c1 (stereo unspecified) | -12.5 | 0.146 µM [falling, full curve, poor fit] | –
BrC(=C\c1ccccc1)/C=N/n1cnnc1 | – | – | 3.66 µM [rising, partial curve, poor fit]

As a working copy, 13 of the compounds above:
Compound | cell number change [%] | AC50 [1] | AC50 [2]
O=C(Nc1nc2ccccc2s1)c1ccccc1[N+](=O)[O-] | -16.2 | 23.1 µM [rising, single point] | –
Cc1ccc2c(cnn2C(=O)CCC(=O)NCc2cccc(Cl)c2)c1 | 7.49 | 6.51 µM [rising, single point] | 0.731 µM [rising, single point]
COCc1cc(=O)[nH]c(-c2ccc(C(F)(F)F)cc2)n1 | -14 | 0.13 µM [falling, full curve, poor fit] | –
COc1ccc(NC(=O)CN(C)C(=O)/C=C/c2ccc(OCc3ccccc3)cc2)cc1 | – | 0.631 µM [falling, full curve, poor fit] | –
O=c1c2ccccc2oc2cc(-c3ccc(CN4CCOCC4)cc3)ccc12 | -6.27 | 7.31 µM [falling, single point] | –
CCOc1ccc2[nH]c3c(NCCCOC)ncnc3c2c1 | -54.3 | 32.6 µM [falling, partial curve] | 20.6 µM [falling, partial curve]
O=c1[nH]nc(CSCc2ccccc2Cl)[nH]1 | – | 0.651 µM [falling, full curve] | 6.51 µM [falling, partial curve, poor fit]
O=C(COc1ccc2ccc(=O)oc2c1)N1CCc2ccccc21 | – | 6.51 µM [falling, single point] | 0.517 µM [falling, single point]
CCCCN(CCCNC(=O)c1c(C)cc(=O)oc1C)c1ccccc1 | 114 | – | 16.4 µM [rising, single point]
COCCN(C(=O)CSc1ncn[nH]1)c1c(N)n(Cc2ccccc2)c(=O)[nH]c1=O | -11.3 | 16.4 µM [falling, partial curve] | –
CN(C)S(=O)(=O)c1ccc(Cl)c(C(=O)Nc2ccc(S(=O)(=O)N3CCOCC3)cc2)c1 | 1.67 | 5.17 µM [falling, single point] | –
CSc1nc(C(C)C)ccc1CNC(=O)CC(C)c1ccccc1 (stereo unspecified) | -4.17 | 6.51 µM [rising, single point] | –
CC(C)OC(=O)NCCOC(=O)Nc1ccc(Cl)cc1 | 5.37 | – | –
